Test results as given in paper PMC10243067.
No constants are given. Whether binding was seen depends on the method and setting. In cells and extracts the contact can be indirect. Some binding calls cover weakened binding; strength is not graded here.

Amino acid sequences for entries named in this document (tags omitted).
UniProt Q86U44: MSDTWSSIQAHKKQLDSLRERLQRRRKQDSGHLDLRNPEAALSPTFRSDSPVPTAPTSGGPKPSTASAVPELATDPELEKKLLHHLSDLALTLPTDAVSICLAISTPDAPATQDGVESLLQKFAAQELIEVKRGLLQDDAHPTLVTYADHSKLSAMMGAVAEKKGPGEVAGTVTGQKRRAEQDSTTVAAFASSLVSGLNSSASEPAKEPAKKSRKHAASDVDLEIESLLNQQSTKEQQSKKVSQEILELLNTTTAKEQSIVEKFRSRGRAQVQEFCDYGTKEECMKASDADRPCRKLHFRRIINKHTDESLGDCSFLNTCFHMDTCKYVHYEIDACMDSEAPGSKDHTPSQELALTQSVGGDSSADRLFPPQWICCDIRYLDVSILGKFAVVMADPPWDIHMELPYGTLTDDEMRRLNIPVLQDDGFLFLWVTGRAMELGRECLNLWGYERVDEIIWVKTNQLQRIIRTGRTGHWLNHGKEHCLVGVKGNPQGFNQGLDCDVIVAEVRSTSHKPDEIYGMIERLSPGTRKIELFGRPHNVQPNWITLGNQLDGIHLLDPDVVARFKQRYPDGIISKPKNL
UniProt O15541: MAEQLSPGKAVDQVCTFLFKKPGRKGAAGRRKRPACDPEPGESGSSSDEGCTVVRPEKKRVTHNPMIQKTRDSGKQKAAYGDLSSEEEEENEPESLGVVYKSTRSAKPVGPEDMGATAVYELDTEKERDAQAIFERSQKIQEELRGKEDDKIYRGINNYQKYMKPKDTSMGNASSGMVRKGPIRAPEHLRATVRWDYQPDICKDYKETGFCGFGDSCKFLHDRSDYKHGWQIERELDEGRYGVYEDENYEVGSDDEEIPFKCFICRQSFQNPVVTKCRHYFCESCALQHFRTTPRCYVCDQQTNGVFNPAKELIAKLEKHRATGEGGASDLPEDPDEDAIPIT

What was measured:
METTL3 = METTL3 (UniProt Q86U44); test: co-IP; reciprocal co-immunoprecipitation in 293 T cells; lysate in IP buffer incubated with antibody-binding magnetic beads at 4 °C overnight, western blot
RNF113A = RNF113A (UniProt O15541); test: as above

| binding (METTL3) | binding (RNF113A) | Substance |
| --- | --- | --- |
| binds |  | RNF113A (from UniProt O15541 1-343) (enzyme) |
|  | binds | METTL3 (from UniProt Q86U44 1-580) (enzyme) |
